This is one part of the list.
Assays:
Experiment in all cases: log2 fold change, soluble protein after heating vs DMSO (PISA); higher = thermal stabilisation; K562 cells, 10 uM, 30 min; active = over 0.2 and 3.5 SD of the protein, either way, in both replicates (recomputed)
[1] = compound: COC1=CC=C(C=C1)CN2C=CC3=C2C=C(C=C3)C(=O)NO
Procedure, shortened: (§1)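 Soluble protein was defined as the supernatant after 21,000xg for 90 min. It came from K562 cells at 2×10^6 cells/mL given 10 μM compound for 30 min, heated in aliquots for 3 min across 48°C-58°C, pooled, and extracted in PBS with 0.5% NP-40 at 4°C, and was quantified by TMTpro 16plex LC-MS/MS with equalised channel sums. Thermal stability against control samples, from duplicates, is reported as log2 fold change.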

The chains behind the UniProt entries cited, without tags or fusion partners. Where a name states a change or a piece, a line headed by the entry shows the natural chain unless it says otherwise.
UniProt P00813: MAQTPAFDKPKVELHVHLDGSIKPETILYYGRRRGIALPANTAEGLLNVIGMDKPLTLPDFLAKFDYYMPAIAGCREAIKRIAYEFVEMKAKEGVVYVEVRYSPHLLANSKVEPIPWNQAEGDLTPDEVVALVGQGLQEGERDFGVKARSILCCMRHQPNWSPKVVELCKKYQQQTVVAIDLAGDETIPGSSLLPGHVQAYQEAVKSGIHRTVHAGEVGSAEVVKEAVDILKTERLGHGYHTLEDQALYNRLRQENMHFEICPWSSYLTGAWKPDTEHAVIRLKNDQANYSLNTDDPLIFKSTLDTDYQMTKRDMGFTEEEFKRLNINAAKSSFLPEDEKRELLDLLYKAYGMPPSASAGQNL
UniProt Q9NUJ1: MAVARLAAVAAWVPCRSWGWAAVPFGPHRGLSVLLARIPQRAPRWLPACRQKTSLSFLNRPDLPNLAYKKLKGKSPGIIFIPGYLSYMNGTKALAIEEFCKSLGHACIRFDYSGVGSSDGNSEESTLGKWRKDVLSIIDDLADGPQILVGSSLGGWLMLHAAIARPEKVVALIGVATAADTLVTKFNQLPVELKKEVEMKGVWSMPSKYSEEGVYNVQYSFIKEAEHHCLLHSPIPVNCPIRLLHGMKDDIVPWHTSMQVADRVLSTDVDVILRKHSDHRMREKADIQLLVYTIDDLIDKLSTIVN
UniProt Q7Z6V5: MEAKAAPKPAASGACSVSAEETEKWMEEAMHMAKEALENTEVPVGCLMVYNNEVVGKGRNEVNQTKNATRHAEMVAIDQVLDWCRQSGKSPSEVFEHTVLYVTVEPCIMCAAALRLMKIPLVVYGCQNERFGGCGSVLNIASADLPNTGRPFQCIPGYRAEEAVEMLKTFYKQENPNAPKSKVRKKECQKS
UniProt Q13685: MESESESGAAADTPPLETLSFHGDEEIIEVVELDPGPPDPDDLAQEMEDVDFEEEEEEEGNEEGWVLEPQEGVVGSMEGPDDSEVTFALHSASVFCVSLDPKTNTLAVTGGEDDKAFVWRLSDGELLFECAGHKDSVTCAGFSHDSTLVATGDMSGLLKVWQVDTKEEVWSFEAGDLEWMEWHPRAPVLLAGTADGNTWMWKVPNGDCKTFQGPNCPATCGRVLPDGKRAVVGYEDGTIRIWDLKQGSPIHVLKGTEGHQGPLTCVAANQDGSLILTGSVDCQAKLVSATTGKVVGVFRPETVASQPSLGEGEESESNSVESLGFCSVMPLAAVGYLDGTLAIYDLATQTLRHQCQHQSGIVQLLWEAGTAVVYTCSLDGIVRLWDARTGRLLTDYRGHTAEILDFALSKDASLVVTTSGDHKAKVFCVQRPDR
UniProt O95573: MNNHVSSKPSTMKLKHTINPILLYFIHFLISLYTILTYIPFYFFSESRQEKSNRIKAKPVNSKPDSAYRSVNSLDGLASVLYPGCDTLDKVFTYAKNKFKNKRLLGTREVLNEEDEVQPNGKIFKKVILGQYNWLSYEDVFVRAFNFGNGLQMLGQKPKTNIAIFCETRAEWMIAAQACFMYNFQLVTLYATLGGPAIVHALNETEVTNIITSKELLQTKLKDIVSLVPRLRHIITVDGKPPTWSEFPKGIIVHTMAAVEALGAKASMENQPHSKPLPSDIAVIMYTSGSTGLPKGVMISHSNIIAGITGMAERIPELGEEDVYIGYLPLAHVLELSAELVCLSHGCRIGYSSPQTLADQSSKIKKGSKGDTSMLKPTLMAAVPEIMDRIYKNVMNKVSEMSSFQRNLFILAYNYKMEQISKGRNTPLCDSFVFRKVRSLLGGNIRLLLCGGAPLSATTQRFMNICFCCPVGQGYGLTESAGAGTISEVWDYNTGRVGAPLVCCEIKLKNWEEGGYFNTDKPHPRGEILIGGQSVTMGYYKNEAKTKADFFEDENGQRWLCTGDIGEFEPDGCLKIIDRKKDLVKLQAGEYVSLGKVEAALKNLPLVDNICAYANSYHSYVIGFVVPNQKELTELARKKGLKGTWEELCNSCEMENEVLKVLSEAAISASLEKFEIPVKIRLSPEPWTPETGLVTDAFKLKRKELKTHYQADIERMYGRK
UniProt Q9H3P7: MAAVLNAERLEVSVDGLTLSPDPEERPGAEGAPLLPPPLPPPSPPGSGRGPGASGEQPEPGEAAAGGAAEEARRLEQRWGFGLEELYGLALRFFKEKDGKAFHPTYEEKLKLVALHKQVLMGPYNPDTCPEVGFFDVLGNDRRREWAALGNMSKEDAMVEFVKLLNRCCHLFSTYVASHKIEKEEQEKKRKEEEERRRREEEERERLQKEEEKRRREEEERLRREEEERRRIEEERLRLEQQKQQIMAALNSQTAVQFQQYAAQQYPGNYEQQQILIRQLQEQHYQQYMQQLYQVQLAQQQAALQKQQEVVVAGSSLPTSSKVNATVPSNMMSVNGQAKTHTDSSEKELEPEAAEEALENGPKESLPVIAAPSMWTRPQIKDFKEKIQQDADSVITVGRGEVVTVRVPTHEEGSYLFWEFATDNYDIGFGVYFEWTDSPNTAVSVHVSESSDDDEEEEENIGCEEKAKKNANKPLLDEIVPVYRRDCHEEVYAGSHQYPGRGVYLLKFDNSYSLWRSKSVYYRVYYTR
UniProt P55265: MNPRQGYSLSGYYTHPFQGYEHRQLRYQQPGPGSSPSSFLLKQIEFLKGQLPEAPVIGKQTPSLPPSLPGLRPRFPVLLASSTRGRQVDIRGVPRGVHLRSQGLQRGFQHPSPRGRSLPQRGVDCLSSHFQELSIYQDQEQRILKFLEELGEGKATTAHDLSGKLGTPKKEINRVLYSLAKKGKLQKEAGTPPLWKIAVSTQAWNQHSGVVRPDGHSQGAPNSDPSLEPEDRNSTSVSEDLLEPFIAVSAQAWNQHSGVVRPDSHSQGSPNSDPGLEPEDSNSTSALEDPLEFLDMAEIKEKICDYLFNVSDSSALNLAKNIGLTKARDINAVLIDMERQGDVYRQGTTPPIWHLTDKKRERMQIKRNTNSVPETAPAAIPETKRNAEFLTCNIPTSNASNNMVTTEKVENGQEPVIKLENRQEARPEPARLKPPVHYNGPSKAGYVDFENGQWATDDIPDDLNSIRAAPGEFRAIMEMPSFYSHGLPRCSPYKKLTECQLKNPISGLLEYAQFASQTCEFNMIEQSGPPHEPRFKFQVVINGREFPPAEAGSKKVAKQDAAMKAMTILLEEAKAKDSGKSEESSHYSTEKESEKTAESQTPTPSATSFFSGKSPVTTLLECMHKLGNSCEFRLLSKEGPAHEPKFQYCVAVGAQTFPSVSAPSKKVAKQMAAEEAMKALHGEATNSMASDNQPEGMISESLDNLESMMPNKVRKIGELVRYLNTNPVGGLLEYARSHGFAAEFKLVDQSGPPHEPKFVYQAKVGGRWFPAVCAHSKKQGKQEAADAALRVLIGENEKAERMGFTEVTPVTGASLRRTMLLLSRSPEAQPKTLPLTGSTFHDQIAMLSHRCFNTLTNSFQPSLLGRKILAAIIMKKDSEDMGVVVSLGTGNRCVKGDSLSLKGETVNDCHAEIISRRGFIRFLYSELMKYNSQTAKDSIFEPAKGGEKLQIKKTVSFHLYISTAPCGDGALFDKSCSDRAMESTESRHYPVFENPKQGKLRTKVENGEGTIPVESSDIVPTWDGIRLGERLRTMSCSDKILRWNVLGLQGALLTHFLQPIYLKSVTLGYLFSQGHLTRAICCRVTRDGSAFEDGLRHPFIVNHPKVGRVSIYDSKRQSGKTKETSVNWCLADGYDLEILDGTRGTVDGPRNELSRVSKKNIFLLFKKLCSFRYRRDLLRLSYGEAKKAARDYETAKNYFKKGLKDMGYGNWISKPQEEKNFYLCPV
UniProt Q9BTE6: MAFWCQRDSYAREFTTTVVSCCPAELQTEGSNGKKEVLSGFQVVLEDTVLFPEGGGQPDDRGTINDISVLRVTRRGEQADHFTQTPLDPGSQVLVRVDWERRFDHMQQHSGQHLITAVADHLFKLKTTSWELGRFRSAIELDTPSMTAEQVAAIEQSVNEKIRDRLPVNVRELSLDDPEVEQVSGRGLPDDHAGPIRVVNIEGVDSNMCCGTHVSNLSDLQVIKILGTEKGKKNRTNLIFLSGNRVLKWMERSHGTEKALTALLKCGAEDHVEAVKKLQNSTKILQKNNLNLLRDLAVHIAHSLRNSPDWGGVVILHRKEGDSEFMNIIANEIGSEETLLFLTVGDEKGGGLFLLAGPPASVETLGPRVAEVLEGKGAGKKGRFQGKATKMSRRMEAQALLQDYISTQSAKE
UniProt Q4L235: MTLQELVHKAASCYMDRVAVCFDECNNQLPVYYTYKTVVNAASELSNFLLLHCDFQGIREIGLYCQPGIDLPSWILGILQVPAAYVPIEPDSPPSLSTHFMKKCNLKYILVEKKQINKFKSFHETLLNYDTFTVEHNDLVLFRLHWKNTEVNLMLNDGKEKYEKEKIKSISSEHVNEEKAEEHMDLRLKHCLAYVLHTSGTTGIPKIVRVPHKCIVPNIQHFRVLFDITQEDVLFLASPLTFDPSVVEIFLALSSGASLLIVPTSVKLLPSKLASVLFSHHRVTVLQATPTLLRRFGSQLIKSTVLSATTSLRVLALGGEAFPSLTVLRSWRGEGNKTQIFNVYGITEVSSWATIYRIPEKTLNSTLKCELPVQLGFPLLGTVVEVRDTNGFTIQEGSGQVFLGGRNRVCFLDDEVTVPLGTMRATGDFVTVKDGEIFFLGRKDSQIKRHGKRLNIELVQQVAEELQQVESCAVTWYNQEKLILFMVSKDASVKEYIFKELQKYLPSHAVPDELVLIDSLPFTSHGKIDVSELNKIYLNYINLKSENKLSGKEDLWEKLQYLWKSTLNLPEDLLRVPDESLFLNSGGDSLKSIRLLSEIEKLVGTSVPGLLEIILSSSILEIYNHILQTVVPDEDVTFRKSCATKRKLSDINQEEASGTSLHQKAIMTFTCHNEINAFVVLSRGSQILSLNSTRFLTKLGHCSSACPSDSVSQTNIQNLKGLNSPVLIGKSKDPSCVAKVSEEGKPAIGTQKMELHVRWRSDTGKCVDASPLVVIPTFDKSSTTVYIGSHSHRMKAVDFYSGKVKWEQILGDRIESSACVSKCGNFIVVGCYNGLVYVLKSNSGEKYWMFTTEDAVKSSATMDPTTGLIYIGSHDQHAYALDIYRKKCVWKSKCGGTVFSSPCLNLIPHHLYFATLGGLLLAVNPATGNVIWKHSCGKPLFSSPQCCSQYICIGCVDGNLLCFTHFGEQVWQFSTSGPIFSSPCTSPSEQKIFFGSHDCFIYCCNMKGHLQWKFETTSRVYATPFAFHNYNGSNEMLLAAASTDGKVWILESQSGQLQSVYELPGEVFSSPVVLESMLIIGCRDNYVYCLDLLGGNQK
UniProt Q9H845: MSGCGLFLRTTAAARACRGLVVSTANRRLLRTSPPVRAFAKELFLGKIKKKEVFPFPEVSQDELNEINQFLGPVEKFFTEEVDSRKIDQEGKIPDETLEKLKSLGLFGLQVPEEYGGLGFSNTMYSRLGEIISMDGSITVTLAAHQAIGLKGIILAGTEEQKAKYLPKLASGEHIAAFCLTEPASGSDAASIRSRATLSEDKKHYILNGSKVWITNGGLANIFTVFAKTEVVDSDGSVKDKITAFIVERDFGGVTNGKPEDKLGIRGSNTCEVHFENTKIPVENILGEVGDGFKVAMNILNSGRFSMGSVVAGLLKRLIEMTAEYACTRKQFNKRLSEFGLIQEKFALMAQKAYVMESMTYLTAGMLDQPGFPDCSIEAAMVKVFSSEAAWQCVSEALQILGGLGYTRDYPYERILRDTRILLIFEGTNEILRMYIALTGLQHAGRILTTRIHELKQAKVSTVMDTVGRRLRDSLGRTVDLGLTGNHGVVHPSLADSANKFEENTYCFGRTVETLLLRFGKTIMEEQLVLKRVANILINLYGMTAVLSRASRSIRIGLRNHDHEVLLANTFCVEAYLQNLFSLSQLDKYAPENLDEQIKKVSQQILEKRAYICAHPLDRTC
UniProt Q9NUB1: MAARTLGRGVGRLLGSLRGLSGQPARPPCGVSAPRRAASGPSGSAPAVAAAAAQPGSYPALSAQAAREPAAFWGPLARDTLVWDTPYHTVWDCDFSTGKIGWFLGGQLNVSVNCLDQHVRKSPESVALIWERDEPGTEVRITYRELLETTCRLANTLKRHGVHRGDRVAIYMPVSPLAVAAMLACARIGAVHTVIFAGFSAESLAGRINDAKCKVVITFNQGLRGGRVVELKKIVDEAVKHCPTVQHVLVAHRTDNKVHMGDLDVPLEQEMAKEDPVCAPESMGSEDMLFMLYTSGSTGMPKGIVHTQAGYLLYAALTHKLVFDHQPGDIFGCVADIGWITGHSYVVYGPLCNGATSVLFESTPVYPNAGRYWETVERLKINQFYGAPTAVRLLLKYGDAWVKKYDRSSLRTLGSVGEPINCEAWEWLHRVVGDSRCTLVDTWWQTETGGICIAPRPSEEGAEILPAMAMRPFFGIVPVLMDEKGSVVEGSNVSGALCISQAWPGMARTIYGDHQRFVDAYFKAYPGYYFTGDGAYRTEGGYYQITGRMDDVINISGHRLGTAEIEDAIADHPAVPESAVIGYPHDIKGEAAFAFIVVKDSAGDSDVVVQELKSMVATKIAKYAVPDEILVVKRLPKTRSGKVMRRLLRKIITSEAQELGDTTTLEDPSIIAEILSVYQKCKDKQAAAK

filanesib = compound: CON(C)C(=O)N1N=C(c2cc(F)ccc2F)S[C@@]1(CCCN)c1ccccc1 [filanesib]
Procedure, shortened: as §1

zotarolimus = compound: CO[C@H]1C[C@@H]2CC[C@@H](C)[C@@](O)(O2)C(=O)C(=O)N2CCCC[C@H]2C(=O)O[C@H]([C@H](C)C[C@@H]2CC[C@H](n3cnnn3)[C@H](OC)C2)CC(=O)[C@H](C)/C=C(\C)[C@@H](O)[C@@H](OC)C(=O)[C@H](C)C[C@H](C)/C=C/C=C/C=C/1C [zotarolimus]
Procedure, shortened: as §1

idasanutlin = compound: COc1cc(C(=O)O)ccc1NC(=O)[C@@H]1N[C@@H](CC(C)(C)C)[C@](C#N)(c2ccc(Cl)cc2F)[C@H]1c1cccc(Cl)c1F [idasanutlin]
Procedure, shortened: as §1

alisertib = compound: COc1cc(Nc2ncc3c(n2)-c2ccc(Cl)cc2C(c2c(F)cccc2OC)=NC3)ccc1C(=O)O [alisertib]
Procedure, shortened: as §1

[2] = compound: COc1cc2nc(-c3cc(F)ccc3O)nc(N[C@@H]3CNC[C@H]3C(C)(C)O)c2cc1OC
Procedure, shortened: as §1

gefitinib = compound: COc1cc2ncnc(Nc3ccc(F)c(Cl)c3)c2cc1OCCCN1CCOCC1 [gefitinib]
Procedure, shortened: as §1

[3] = compound: COc1cccc2cc(-c3nc([C@H]4CC[C@H](C(=O)O)CC4)n4ncnc(N)c34)[nH]c12
Procedure, shortened: as §1

lapatinib = compound: CS(=O)(=O)CCNCc1ccc(-c2ccc3ncnc(Nc4ccc(OCc5cccc(F)c5)c(Cl)c4)c3c2)o1 [lapatinib]
Procedure, shortened: as §1

pictilisib = compound: CS(=O)(=O)N1CCN(Cc2cc3nc(-c4cccc5[nH]ncc45)nc(N4CCOCC4)c3s2)CC1 [pictilisib]
Procedure, shortened: as §1

[4] = compound: CS(=O)(=O)c1ccc(-c2cnc(N)c(C(=O)Nc3ccccc3)n2)cc1
Procedure, shortened: as §1

crizotinib = compound: C[C@@H](Oc1cc(-c2cnn(C3CCNCC3)c2)cnc1N)c1c(Cl)ccc(F)c1Cl [crizotinib]
Procedure, shortened: as §1

[5] = compound: C[C@@H]1COCCN1C2=NC(=NC(=C2)C3(CC3)S(=O)(=O)C)C4=C5C=CNC5=CC=C4
Procedure, shortened: as §1

[6] = compound: C[C@H](C1=CC=C(C=C1)C(=O)NC2=C3C=CNC3=NC=C2)N
Procedure, shortened: as §1

duvelisib = compound: C[C@H](Nc1ncnc2nc[nH]c12)c1cc2cccc(Cl)c2c(=O)n1-c1ccccc1 [duvelisib]
Procedure, shortened: as §1

gandotinib = compound: Cc1cc(Nc2cc(CN3CCOCC3)c3nc(C)c(Cc4ccc(Cl)cc4F)n3n2)n[nH]1 [gandotinib]
Procedure, shortened: as §1

tozasertib = compound: Cc1cc(Nc2cc(N3CCN(C)CC3)nc(Sc3ccc(NC(=O)C4CC4)cc3)n2)n[nH]1 [tozasertib]
Procedure, shortened: as §1

[7] = compound: Cc1cc(SCc2sc(-c3ccc(C(F)(F)F)cc3)nc2C)ccc1OCC(=O)O
Procedure, shortened: as §1

doramapimod = compound: Cc1ccc(-n2nc(C(C)(C)C)cc2NC(=O)Nc2ccc(OCCN3CCOCC3)c3ccccc23)cc1 [doramapimod]
Procedure, shortened: as §1

ispinesib = compound: Cc1ccc(C(=O)N(CCCN)[C@@H](c2nc3cc(Cl)ccc3c(=O)n2Cc2ccccc2)C(C)C)cc1 [ispinesib]
Procedure, shortened: as §1

Measured: log2 fold change

ADAM10 (UniProt O14672)
inactive: [1] 0.028 | filanesib 0.041 | zotarolimus 0.017 | idasanutlin 0.04 | alisertib -0.073 | [2] 0.018 | gefitinib -0.012 | [3] -0.003 | lapatinib -0.045 | pictilisib 0.019 | [4] 0.052 | crizotinib 0.081 | [5] -0.031 | [6] -0.052 | duvelisib 0.017 | gandotinib -0.009 | tozasertib 0.006 | [7] -0.013 | doramapimod 0.018 | ispinesib -0.001

ADA (UniProt P00813)
inactive: [1] -0.014 | filanesib 0.027 | zotarolimus -0.082 | idasanutlin 0.08 | alisertib -0.006 | [2] 0.056 | gefitinib -0.056 | [3] 0.008 | lapatinib -0.002 | pictilisib 0.011 | [4] 0.013 | crizotinib 0.006 | [5] 0.066 | [6] -0.036 | duvelisib 0.075 | gandotinib -0.052 | tozasertib -0.056 | [7] -0.094 | doramapimod 0.014 | ispinesib -0.005

ABHD10 (UniProt Q9NUJ1)
inactive: [1] 0.104 | filanesib 0 | zotarolimus 0.024 | idasanutlin -0.05 | alisertib -0.022 | [2] -0.003 | gefitinib 0.016 | [3] 0.068 | lapatinib 0.02 | pictilisib 0.01 | [4] -0.016 | crizotinib 0.087 | [5] 0.083 | [6] -0.068 | duvelisib 0.025 | gandotinib 0.016 | tozasertib -0.001 | [7] -0.041 | doramapimod -0.144 | ispinesib -0.004

ACTR1B (UniProt P42025)
inactive: [1] 0.084 | filanesib 0.044 | zotarolimus -0.026 | idasanutlin -0.136 | alisertib -0.163 | [2] 0.008 | gefitinib 0.04 | [3] 0.073 | lapatinib -0.104 | pictilisib 0.127 | [4] 0 | crizotinib -0.009 | [5] 0.156 | [6] 0.072 | gandotinib -0.167 | [7] -0.022 | doramapimod 0 | ispinesib 0.124

ADAT2 (UniProt Q7Z6V5)
inactive: [1] 0.106 | filanesib 0.018 | zotarolimus 0.023 | idasanutlin -0.012 | alisertib -0.027 | [2] -0.014 | gefitinib -0.02 | [3] 0.057 | lapatinib -0.036 | pictilisib -0.054 | [4] 0.009 | crizotinib -0.026 | [5] 0.072 | [6] 0.014 | duvelisib 0.055 | gandotinib -0.031 | tozasertib -0.038 | [7] -0.05 | doramapimod -0.026 | ispinesib 0.048

ACTN1 (UniProt P12814)
inactive: [1] 0.046 | filanesib 0.003 | zotarolimus 0.018 | idasanutlin -0.045 | alisertib -0.031 | [2] 0.012 | gefitinib -0.011 | [3] 0.032 | lapatinib 0.001 | pictilisib 0.034 | [4] -0.014 | crizotinib 0.031 | [5] 0.011 | [6] -0.049 | duvelisib 0.05 | gandotinib -0.012 | tozasertib -0.028 | [7] 0.004 | doramapimod 0.007 | ispinesib 0.056

AAMP (UniProt Q13685)
inactive: [1] -0.031 | filanesib 0.003 | zotarolimus 0.029 | idasanutlin -0.052 | alisertib -0.049 | [2] -0.027 | gefitinib 0.026 | [3] 0.033 | lapatinib 0.024 | pictilisib -0.002 | [4] 0.027 | crizotinib 0.115 | [5] -0.007 | [6] -0.006 | gandotinib -0.047 | [7] -0.03 | doramapimod -0.037 | ispinesib 0.038

ACSL3 (UniProt O95573)
inactive: [1] 0.126 | filanesib -0.045 | zotarolimus 0.019 | idasanutlin -0.127 | alisertib 0.026 | [2] 0.046 | gefitinib 0.021 | [3] 0.037 | lapatinib 0 | pictilisib 0.022 | [4] 0.009 | crizotinib -0.013 | [5] 0.011 | [6] -0.024 | gandotinib -0.046 | [7] 0.097 | doramapimod -0.033 | ispinesib -0.024

ACBD3 (UniProt Q9H3P7)
inactive: [1] 0.031 | filanesib 0.024 | zotarolimus 0.022 | idasanutlin -0.151 | alisertib -0.063 | [2] -0.016 | gefitinib 0.104 | [3] 0.012 | lapatinib -0.005 | pictilisib 0.054 | [4] 0.024 | crizotinib 0.089 | [5] 0.002 | [6] -0.077 | duvelisib 0.005 | gandotinib 0.044 | tozasertib -0.009 | [7] 0.029 | doramapimod -0.003 | ispinesib 0.096

ADAR isoform 4 (UniProt P55265)
inactive: [1] -0.096 | filanesib 0.272 | zotarolimus -0.018 | idasanutlin -0.279 | alisertib 0.195 | [2] -0.181 | gefitinib -0.152 | [3] 0.186 | lapatinib -0.177 | pictilisib 0.01 | [4] -0.097 | crizotinib 0.113 | [5] -0.131 | [6] 0.274 | duvelisib -0.017 | gandotinib 0.03 | tozasertib 0.196 | [7] -0.064 | doramapimod 0.028 | ispinesib -0.012

ABCD3 (UniProt P28288)
inactive: [1] -0.005 | filanesib 0.033 | zotarolimus 0.016 | idasanutlin -0.13 | alisertib -0.012 | [2] 0.193 | gefitinib 0 | [3] 0.037 | lapatinib -0.02 | pictilisib 0.11 | [4] 0.062 | crizotinib 0.043 | [5] 0.032 | [6] -0.014 | duvelisib 0.091 | gandotinib -0.043 | tozasertib -0.008 | [7] 0.009 | doramapimod 0.004 | ispinesib 0.167

AARSD1 isoform 3 (UniProt Q9BTE6)
inactive: filanesib -0.013 | zotarolimus 0.012 | idasanutlin 0.076 | alisertib -0.067 | [2] -0.012 | gefitinib 0.083 | [3] -0.081 | lapatinib 0.045 | pictilisib 0.029 | [4] 0.062 | crizotinib 0.054 | [5] 0.012 | [6] 0.013 | gandotinib -0.081 | [7] 0.038 | doramapimod -0.05 | ispinesib 0.067
active: [1] -0.47

AASDH (UniProt Q4L235)
inactive: [1] -0.13 | filanesib -0.01 | zotarolimus -0.221 | alisertib -0.141 | [2] 0.041 | gefitinib -0.143 | [3] 0.207 | lapatinib 0.063 | pictilisib 0.093 | [4] -0.04 | crizotinib 0.07 | [5] 0.142 | [6] -0.058 | gandotinib -0.066 | [7] -0.034 | doramapimod -0.161 | ispinesib -0.236

ACAD9 (UniProt Q9H845)
inactive: [1] -0.005 | filanesib -0.069 | zotarolimus -0.017 | idasanutlin 0.017 | alisertib -0.012 | [2] 0.03 | gefitinib 0.016 | [3] 0.083 | lapatinib -0.015 | pictilisib 0.082 | [4] 0.01 | crizotinib 0.035 | [5] 0.021 | [6] -0.061 | gandotinib -0.03 | [7] -0.052 | doramapimod -0.002 | ispinesib 0.059

ACSS1 (UniProt Q9NUB1)
inactive: [1] -0.051 | filanesib -0.102 | zotarolimus -0.046 | idasanutlin -0.036 | alisertib 0.024 | [2] 0.002 | gefitinib 0.023 | [3] 0.162 | lapatinib 0.001 | pictilisib -0.082 | [4] 0.12 | crizotinib 0.294 | [6] -0.127 | duvelisib 0.184 | gandotinib 0.029 | tozasertib 0.025 | [7] 0.041 | doramapimod 0.117 | ispinesib -0.061

ABHD5 (UniProt Q8WTS1)
inactive: [1] 0.043 | filanesib 0.098 | zotarolimus 0.111 | idasanutlin -0.047 | [2] -0.108 | lapatinib 0.025 | [4] 0.052 | crizotinib -0.066 | [6] -0.061 | duvelisib 0.074 | tozasertib 0.139 | [7] -0.134 | doramapimod 0.009 | ispinesib -0.011

AAK1, A0A096LP25
inactive: [1] -0.089 | filanesib -0.01 | zotarolimus -0.095 | idasanutlin -0.077 | alisertib 0.002 | gefitinib -0.049 | [3] 0.129 | pictilisib 0.16 | [4] 0.138 | crizotinib 0.124 | [5] 0.012 | [6] 0.365 | gandotinib 0.103 | [7] -0.048 | doramapimod -0.013 | ispinesib 0.011
